In article PMC11584840:
Results are given in words; binding and its absence hold for the method and conditions named. In cells and extracts the contact can be indirect. Some results given as binding are weak or reduced against the parent protein; the word gives no strength.

The chains behind the UniProt entries cited, without tags or fusion partners.
UniProt P28482: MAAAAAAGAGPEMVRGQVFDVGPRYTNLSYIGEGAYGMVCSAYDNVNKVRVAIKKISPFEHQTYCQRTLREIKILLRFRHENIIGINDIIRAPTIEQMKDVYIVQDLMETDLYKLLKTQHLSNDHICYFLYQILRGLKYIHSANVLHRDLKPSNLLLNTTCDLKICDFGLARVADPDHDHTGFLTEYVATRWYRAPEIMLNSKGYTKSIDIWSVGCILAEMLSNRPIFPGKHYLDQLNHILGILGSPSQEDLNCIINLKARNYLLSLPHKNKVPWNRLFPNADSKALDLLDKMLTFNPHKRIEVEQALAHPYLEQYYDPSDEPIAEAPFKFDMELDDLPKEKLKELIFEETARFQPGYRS

Target: FLAG-ERK2 (UniProt P28482)
Assay: co-IP; HEK293T cells transfected with the indicated plasmids; IP with anti-Flag from whole cell lysates (overnight, 4 °C, protein A/G agarose), Western blot with anti-SENP2

B1: SENP2 (enzyme, UniProt Q9HC62 1-589)
chain: MYRWLVRILGTIFRFCDRSVPPARALLKRRRSDSTLFSTVDTDEIPAKRPRLDCFIHQVKNSLYNAASLFGFPFQLTTKPMVTSACNGTRNVAPSGEVFSNSSSCELTGSGSWNNMLKLGNKSPNGISDYPKIRVTVTRDQPRRVLPSFGFTLNSEGCNRRPGGRRHSKGNPESSLMWKPQEQAVTEMISEESGKGLRRPHCTVEEGVQKEEREKYRKLLERLKESGHGNSVCPVTSNYHSSQRSQMDTLKTKGWGEEQNHGVKTTQFVPKQYRLVETRGPLCSLRSEKRCSKGKITDTETMVGIRFENESRRGYQLEPDLSEEVSARLRLGSGSNGLLRRKVSIIETKEKNCSGKERDRRTDDLLELTEDMEKEISNALGHGPQDEILSSAFKLRITRGDIQTLKNYHWLNDEVINFYMNLLVERNKKQGYPALHVFSTFFYPKLKSGGYQAVKRWTKGVNLFEQEIILVPIHRKVHWSLVVIDLRKKCLKYLDSMGQKGHRICEILLQYLQDESKTKRNSDLNLLEWTHHSMKPHEIPQQLNGSDCGMFTCKYADYISRDKPITFTQHQMPLFRKKMVWEILHQQLL
binding: binds
